# Assay results published in the supplement of paper PMC12823440, “Inhibitors supercharge kinase turnover through native proteolytic circuits” (Nature, 2025).
# By UniProt entry, the sequences of proteins in these tests, tags left out. Where a name states a change or a piece, a line headed by the entry shows the natural chain unless it says otherwise.
# UniProt Q9UM73: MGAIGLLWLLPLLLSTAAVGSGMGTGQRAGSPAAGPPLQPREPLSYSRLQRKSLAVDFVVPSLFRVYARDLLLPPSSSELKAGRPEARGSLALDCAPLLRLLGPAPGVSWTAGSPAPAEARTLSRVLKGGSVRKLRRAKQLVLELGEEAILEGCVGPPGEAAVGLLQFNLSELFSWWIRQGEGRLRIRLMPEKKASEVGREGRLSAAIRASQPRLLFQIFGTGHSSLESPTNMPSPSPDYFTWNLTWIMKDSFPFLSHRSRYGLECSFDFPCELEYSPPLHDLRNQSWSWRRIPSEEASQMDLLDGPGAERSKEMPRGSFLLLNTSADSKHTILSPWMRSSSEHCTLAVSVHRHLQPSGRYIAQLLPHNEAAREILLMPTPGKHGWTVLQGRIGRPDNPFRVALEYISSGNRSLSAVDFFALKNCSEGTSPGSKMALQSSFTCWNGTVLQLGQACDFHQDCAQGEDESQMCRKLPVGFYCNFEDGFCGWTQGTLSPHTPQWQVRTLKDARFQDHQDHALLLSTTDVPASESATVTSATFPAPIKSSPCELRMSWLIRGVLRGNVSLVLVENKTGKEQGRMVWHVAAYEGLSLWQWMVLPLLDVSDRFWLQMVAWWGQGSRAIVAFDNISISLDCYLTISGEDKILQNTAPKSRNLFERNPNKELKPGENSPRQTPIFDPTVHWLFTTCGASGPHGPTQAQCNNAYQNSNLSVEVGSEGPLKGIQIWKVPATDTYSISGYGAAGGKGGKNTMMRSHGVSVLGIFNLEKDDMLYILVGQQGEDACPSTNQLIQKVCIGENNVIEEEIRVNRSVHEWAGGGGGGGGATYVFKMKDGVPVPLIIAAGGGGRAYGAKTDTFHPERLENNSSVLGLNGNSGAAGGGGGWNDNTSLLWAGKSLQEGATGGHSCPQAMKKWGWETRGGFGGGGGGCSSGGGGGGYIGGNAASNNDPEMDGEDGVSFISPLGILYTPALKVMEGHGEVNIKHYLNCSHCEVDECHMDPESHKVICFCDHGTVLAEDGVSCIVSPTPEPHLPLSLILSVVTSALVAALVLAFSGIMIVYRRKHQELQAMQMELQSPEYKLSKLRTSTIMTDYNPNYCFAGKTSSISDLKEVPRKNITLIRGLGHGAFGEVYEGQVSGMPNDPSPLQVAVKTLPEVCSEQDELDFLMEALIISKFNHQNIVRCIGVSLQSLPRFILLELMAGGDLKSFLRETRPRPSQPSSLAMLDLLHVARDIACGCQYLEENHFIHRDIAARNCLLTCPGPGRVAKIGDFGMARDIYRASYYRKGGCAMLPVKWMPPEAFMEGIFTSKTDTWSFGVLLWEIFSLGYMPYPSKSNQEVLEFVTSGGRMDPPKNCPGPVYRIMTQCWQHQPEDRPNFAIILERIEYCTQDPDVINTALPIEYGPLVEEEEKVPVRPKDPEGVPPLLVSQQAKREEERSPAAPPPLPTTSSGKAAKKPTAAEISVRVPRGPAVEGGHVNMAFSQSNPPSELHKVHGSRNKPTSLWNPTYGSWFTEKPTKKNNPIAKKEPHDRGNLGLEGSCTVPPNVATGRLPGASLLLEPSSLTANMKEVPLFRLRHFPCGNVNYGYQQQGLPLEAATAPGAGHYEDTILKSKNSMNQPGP
# UniProt P10398: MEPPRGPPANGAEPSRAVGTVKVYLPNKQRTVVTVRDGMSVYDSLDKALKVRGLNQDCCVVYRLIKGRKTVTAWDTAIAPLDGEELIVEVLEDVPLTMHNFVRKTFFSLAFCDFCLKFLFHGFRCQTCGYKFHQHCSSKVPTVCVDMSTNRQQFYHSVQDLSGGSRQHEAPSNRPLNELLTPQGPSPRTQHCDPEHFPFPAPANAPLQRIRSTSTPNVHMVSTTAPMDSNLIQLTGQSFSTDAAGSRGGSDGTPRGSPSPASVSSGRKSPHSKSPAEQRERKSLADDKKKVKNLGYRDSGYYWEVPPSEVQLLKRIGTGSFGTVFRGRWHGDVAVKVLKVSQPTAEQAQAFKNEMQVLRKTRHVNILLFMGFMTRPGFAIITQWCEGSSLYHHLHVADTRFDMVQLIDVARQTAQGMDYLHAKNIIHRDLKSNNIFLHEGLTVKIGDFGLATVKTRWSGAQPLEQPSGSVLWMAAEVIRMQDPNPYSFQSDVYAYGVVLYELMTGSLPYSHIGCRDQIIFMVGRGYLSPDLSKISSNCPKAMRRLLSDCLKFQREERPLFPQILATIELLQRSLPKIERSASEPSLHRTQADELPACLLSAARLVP
# UniProt O14965: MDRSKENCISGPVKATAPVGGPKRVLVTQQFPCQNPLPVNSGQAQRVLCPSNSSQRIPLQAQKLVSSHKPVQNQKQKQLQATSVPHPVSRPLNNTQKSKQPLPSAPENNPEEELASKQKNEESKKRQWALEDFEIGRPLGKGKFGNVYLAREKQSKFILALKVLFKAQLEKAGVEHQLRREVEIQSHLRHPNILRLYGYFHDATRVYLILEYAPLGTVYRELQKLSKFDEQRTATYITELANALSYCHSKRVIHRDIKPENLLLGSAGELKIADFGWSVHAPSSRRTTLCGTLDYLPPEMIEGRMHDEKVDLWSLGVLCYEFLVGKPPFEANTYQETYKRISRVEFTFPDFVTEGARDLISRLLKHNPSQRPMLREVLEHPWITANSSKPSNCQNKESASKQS
# UniProt Q9UQB9: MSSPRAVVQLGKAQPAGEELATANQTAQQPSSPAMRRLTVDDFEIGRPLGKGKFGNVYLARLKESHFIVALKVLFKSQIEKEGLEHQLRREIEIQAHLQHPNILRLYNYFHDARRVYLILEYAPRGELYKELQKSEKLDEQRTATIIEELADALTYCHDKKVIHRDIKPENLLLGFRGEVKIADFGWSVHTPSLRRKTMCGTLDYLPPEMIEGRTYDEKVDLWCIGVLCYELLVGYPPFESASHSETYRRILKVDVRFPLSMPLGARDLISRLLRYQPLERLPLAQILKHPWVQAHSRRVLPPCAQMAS
# UniProt P51813: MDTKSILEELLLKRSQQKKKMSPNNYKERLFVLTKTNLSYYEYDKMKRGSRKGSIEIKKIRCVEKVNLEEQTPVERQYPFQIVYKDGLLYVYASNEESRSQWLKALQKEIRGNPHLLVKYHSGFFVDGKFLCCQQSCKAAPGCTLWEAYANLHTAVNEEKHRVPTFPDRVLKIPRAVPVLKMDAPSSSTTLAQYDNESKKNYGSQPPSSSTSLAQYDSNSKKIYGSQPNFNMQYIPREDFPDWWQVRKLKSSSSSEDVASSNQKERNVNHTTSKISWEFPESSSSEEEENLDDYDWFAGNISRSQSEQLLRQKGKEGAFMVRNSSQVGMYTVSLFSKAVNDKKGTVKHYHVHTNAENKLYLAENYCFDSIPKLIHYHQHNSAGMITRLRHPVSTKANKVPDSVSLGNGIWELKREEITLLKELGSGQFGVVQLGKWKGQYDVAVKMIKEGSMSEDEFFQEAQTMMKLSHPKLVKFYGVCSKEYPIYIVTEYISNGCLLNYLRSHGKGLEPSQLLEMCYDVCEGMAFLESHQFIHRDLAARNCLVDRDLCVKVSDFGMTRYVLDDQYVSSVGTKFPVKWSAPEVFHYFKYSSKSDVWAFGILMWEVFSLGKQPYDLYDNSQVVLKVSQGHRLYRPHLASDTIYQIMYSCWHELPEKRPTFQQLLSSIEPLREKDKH
# UniProt P15056, whole entry, looked up: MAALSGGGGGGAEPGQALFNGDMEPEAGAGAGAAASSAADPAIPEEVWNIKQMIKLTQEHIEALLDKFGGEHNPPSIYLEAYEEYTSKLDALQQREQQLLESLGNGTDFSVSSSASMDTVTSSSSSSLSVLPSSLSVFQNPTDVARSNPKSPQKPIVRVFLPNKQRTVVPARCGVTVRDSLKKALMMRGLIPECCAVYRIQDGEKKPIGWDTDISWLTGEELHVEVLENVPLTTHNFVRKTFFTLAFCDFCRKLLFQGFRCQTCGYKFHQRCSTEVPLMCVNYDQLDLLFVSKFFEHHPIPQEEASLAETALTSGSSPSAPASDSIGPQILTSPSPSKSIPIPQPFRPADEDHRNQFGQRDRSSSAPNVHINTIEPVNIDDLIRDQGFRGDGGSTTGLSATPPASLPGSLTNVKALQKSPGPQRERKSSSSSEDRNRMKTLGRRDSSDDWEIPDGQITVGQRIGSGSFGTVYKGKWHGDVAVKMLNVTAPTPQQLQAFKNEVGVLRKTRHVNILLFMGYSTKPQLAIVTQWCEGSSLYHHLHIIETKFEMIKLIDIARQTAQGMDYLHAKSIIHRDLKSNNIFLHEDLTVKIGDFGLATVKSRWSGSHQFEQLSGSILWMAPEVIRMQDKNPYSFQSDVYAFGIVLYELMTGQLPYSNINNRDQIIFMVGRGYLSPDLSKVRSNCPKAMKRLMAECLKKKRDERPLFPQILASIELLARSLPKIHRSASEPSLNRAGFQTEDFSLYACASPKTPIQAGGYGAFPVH
# UniProt Q06187: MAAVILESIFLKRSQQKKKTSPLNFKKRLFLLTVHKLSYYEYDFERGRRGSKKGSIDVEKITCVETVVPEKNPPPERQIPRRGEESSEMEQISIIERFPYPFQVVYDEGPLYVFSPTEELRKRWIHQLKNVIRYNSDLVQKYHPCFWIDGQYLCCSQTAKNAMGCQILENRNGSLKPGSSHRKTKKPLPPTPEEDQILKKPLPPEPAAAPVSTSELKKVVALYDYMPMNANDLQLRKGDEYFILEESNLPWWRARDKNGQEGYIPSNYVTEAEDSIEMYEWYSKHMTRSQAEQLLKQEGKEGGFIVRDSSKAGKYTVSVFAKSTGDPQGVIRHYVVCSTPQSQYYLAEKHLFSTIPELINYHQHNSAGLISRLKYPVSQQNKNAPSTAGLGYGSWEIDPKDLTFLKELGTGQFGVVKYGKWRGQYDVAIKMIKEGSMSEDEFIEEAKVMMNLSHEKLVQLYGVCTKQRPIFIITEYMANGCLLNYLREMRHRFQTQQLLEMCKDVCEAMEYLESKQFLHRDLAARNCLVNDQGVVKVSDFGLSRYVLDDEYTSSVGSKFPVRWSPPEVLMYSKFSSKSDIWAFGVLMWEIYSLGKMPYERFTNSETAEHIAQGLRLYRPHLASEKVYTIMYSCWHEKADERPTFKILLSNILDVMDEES
# UniProt Q00534, whole entry: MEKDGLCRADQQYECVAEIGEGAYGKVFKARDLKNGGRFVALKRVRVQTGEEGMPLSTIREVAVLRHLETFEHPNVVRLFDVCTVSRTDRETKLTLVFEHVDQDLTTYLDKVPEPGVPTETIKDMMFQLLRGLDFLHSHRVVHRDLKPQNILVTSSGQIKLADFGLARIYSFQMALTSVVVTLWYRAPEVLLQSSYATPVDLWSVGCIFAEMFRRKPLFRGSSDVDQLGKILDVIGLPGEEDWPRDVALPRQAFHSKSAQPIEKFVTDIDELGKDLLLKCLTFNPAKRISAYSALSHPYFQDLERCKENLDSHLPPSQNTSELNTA
# UniProt O96017, whole entry: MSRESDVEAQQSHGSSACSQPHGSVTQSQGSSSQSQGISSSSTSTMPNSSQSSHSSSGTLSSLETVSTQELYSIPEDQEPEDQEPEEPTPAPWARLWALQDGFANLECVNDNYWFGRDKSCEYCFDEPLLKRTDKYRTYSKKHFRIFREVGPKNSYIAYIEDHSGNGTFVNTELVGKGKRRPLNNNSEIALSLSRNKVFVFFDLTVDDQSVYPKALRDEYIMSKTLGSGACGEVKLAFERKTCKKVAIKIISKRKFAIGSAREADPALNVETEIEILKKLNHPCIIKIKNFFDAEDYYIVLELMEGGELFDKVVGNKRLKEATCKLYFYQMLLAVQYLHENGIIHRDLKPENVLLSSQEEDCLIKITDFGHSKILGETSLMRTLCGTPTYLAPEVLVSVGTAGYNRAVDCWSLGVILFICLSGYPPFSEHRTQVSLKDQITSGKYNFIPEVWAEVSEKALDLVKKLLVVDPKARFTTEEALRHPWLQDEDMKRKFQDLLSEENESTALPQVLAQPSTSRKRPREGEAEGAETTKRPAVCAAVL
# UniProt P41240: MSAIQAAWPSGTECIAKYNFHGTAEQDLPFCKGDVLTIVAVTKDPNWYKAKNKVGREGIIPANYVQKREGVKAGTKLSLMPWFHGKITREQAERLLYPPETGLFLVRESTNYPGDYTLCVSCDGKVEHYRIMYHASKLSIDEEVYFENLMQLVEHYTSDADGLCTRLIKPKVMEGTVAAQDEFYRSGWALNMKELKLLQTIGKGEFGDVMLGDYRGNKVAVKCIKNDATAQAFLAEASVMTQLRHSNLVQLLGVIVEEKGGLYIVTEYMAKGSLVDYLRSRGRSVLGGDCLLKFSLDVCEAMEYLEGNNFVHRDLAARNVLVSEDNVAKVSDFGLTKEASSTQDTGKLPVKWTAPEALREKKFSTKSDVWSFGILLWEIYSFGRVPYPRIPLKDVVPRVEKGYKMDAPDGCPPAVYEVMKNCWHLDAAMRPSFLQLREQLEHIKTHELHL
# The other results are listed elsewhere or left out. The calls rarely recur for the same compound in another form.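 Kinases were expressed as nanoluciferase fusions in K562 cells and luminescence was read every 4 h between 2 and 18 h as percent of control, DMSO set to 100% and a positive control to 0%. A time point counts as decreased when the signal drops significantly (2 sigma). The hit call is the authors' own, does not follow from the count of time points alone, and its rule is not shown.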
# How the values were obtained:
# Test in all cases: number of time points (of 5) at which kinase-Nluc abundance scored as decreased, DMSO-normalised (count); higher = more persistent destabilization
# Settings in all cases: K562; 2-18 h
# ALK = ALK (UniProt Q9UM73)
# ARAF = ARAF (UniProt P10398)
# AURKA = AURKA (UniProt O14965)
# AURKB = AURKB (UniProt Q96GD4)
# AURKC = AURKC (UniProt Q9UQB9)
# BLK = BLK (UniProt P51451)
# BMX = BMX (UniProt P51813)
# BRAF = BRAF (UniProt P15056)
# BRAF_V600E = tested on: BRAF_V600E
# BTK = BTK (UniProt Q06187)
# CAMK2A = CAMK2A (UniProt Q9UQM7)
# CAMK2G = CAMK2G (UniProt Q13555)
# CDK10 = CDK10 (UniProt Q15131)
# CDK2 = CDK2 (UniProt P24941)
# CDK3 = CDK3 (UniProt Q00526)
# CDK5 = CDK5 (UniProt Q00535)
# CDK6 = CDK6 (UniProt Q00534)
# CHEK2 = CHEK2 (UniProt O96017)
# CSF1R = CSF1R (UniProt P07333)
# CSK = CSK (UniProt P41240)
SMILES,number of time points (ALK),number of time points (ARAF),number of time points (AURKA),number of time points (AURKB),number of time points (AURKC),number of time points (BLK),number of time points (BMX),number of time points (BRAF),number of time points (BRAF_V600E),number of time points (BTK),number of time points (CAMK2A),number of time points (CAMK2G),number of time points (CDK10),number of time points (CDK2),number of time points (CDK3),number of time points (CDK5),number of time points (CDK6),number of time points (CHEK2),number of time points (CSF1R),number of time points (CSK)
COCCOc1cnc(Sc2cc(C)c(-c3csc(NC(=O)c4ccncc4)n3)c(C)c2)cn1 [T-1101 (tosylate)] (2.5 µM),0,0,3,0,0,0,0,0,1,0,0,0,0,0,0,0,0,0,0,0
Nc1cc(Nc2ccc(S(N)(=O)=O)cc2)ncn1 (10 µM),0,0,0,0,0,0,0,0,2,0,0,0,0,0,0,0,0,0,0,0
COc1c(NC(=O)C(=O)c2ccc(OCCN3CCOCC3)c3ccccc23)cc(C(C)(C)C)cc1NS(C)(=O)=O (2.5 µM),0,0,0,0,0,0,0,0,0,0,0,0,0,0,0,0,0,0,0,0
COc1ccc([C@@H]2CC(=O)c3c(O)cc(O)cc3O2)cc1O [Hesperetin] (10 µM),0,0,0,0,0,0,0,0,0,0,0,0,0,0,0,0,0,0,0,0
O=C(Nc1cc(Oc2cc(F)c(NC(=O)C3(C(=O)Nc4ccc(F)cc4)CC3)cc2F)ccn1)C1CC1 [Altiratinib] (10 µM),0,0,0,0,0,0,0,5,0,0,0,0,0,0,0,0,2,0,0,0
COc1ccc(Cl)cc1NC(=O)Nc1cc(C)nc2ccccc12 (2.5 µM),0,0,0,0,0,0,0,0,0,0,0,0,0,0,0,0,0,0,0,0
CC(C)NC(=O)N1CC[C@H](NC2=Nc3cc(F)ccc3N(CC(F)F)c3ccc(Cl)cc32)C1 (10 µM),0,0,0,0,0,0,0,0,0,0,0,0,0,0,0,0,0,0,0,0
CC(C)=CCC[C@](C)(O[C@@H]1O[C@H](CO)[C@@H](O)[C@H](O)[C@H]1O)[C@H]1CC[C@]2(C)[C@@H]1[C@H](O)C[C@@H]1[C@@]3(C)CC[C@H](O)C(C)(C)[C@@H]3[C@@H](O[C@@H]3O[C@H](CO)[C@@H](O)[C@H](O)[C@H]3O[C@@H]3O[C@@H](C)[C@H](O)[C@@H](O)[C@H]3O)C[C@]12C [Ginsenoside Re] (10 µM),0,0,0,0,0,0,0,0,0,0,0,0,0,0,0,0,0,0,0,0
CCn1c(=O)c(-c2ccc(-c3cncs3)cc2Cl)cc2cnc(Nc3ccc(N4CCN(C)CC4)cc3)nc21 (2.5 µM),0,0,0,0,0,0,0,0,0,0,0,0,0,0,0,0,0,0,0,0
Cc1cc(Nc2cc3ncccc3c(N[C@@H]3C[C@H]4CC[C@@H](C3)N4CCC#N)n2)n[nH]1 [Izencitinib] (10 µM),0,0,0,0,0,0,0,0,0,0,0,0,0,0,0,1,0,0,0,0
O=C(NCCCNC(=O)Nc1cccc(C2=NCCN2)c1)Nc1cccc(C2=NCCN2)c1 [p32 Inhibitor M36] (10 µM),0,0,0,0,0,0,0,0,0,0,0,0,0,0,0,0,0,0,0,0
C=C(CCC=C(C)C)[C@H]1CC[C@]2(C)[C@@H]1[C@H](O)C[C@@H]1[C@@]3(C)CC[C@H](O[C@@H]4O[C@H](CO)[C@@H](O)[C@H](O)[C@H]4O[C@@H]4O[C@H](CO)[C@@H](O)[C@H](O)[C@H]4O)C(C)(C)[C@@H]3CC[C@]12C [Ginsenoside Rk1] (10 µM),0,0,0,0,0,0,0,0,0,0,0,0,0,0,0,0,0,0,0,0
Cc1c(CN2CCN(S(C)(=O)=O)CC2)sc2c(N3CCOCC3)nc(-c3cnc(N)nc3)nc12 (2.5 µM),0,0,0,0,0,0,3,3,0,1,0,0,0,0,0,0,2,0,0,0
CNC(=O)c1ccc(-c2cnc3cnc(C(=O)N(C)c4ccc(Cl)cc4)cn23)cc1 (2.5 µM),0,0,0,0,0,0,0,0,0,0,0,0,0,0,0,0,0,0,0,0
Cc1ccc(NC(=S)NNc2c([N+](=O)[O-])cc(C(F)(F)F)cc2[N+](=O)[O-])cc1Cl (10 µM),0,0,0,0,0,0,0,0,0,0,0,0,0,0,0,0,0,0,0,0
NCc1ccc(Nc2ncc(F)c(Nc3ccccc3)n2)cc1 (10 µM),0,0,0,0,0,0,0,1,0,0,0,0,0,0,0,0,0,0,0,0
CC(=O)N1CCN(c2cc(-c3cc(C(F)(F)F)c4c(N)ncnn34)ccc2C#N)C(=O)C1(C)C (10 µM),0,0,0,0,0,0,0,0,0,0,0,0,0,0,0,0,0,0,0,0
COc1ccc(C(=O)Nc2sc3c(c2C(N)=O)CCCC3)cc1OC (10 µM),0,0,0,0,0,0,0,0,0,0,0,0,0,0,0,0,0,0,0,0
CC1=C2C(=O)O[C@@H](c3ccoc3)[C@]2(C)CCC1 [Fraxinellone] (10 µM),0,0,0,0,0,0,0,0,0,0,0,0,0,0,0,0,0,0,0,0
c1cc2c(cc1O[C@H]1OC[C@H]3[C@@H]1CO[C@@H]3c1ccc3c(c1)OCO3)OCO2 [Sesamolin] (10 µM),0,0,0,0,0,0,0,0,0,0,0,0,0,0,0,0,0,0,0,0
C=CC(=O)Nc1cccc(C)c1Nc1ncc2cc(-c3c(Cl)c(OC)cc(OC)c3Cl)ccc2n1 (2.5 µM),0,0,0,0,0,0,0,0,2,0,0,0,0,0,0,0,0,0,0,0
Cc1cc(NC(=O)c2cccc(NC(=O)/C=C/CN(C)C)c2)ccc1Nc1nccc(-c2cccnc2)n1 (10 µM),1,0,0,0,0,0,1,0,0,0,0,0,0,0,0,0,0,0,0,0
CC[C@@]1(c2ccccc2)C2=C(CC(C)(C)CC2=O)Nc2[nH]ncc21 (10 µM),0,0,0,0,0,0,0,0,0,0,0,0,0,0,0,0,0,0,0,0

# 2 records drawn at random from those above, as already listed:
SMILES,number of time points (ALK),number of time points (ARAF),number of time points (AURKA),number of time points (AURKB),number of time points (AURKC),number of time points (BLK),number of time points (BMX),number of time points (BRAF),number of time points (BRAF_V600E),number of time points (BTK),number of time points (CAMK2A),number of time points (CAMK2G),number of time points (CDK10),number of time points (CDK2),number of time points (CDK3),number of time points (CDK5),number of time points (CDK6),number of time points (CHEK2),number of time points (CSF1R),number of time points (CSK)
C=CC(=O)Nc1cccc(C)c1Nc1ncc2cc(-c3c(Cl)c(OC)cc(OC)c3Cl)ccc2n1 (2.5 µM),0,0,0,0,0,0,0,0,2,0,0,0,0,0,0,0,0,0,0,0
Cc1cc(Nc2cc3ncccc3c(N[C@@H]3C[C@H]4CC[C@@H](C3)N4CCC#N)n2)n[nH]1 [Izencitinib] (10 µM),0,0,0,0,0,0,0,0,0,0,0,0,0,0,0,1,0,0,0,0
